# Measurements taken from the supplement of paper PMC8728848.
# Some of the results follow.
# B1: HA-61200 (Pseudomonas aeruginosa), Q02SP8_PSEAB (protein)
# chain: MNKCYALVWNVSQGCWNVVSEGSRRRGKPAGAKAAIASVLALLGATALAPAYALPSGGTVVGGSANGEIHLSGGNSLSVNQKVDKLIANWDSFSVAAGERVIFNQPSSSSIALNRVIGTKASDIQGRIDANGQVFLVNPNGVLFGRGAQVNVGGLVASTLDITDAEFNGNSSRYRFTGPSTNGVLNHGGAITAAEGGSIALLGAQVDNRGTVLAQMGGVGLGAGSDLTLNFDGNKLLDIRVDAGVANALASNGGLLKADGGRVLMAARTANALLNTVVNSQGAIEARSLRGKNGRIVLDG
# Legend:
# Experiment in all cases: glycan array binding signal (z-score within array); higher = stronger binding
# Conditions in all cases: glycan notation: IUPAC condensed, linker removed
# [1] = target: Neu5Ac(a2-3)Gal(b1-4)GlcNAc(b1-3)Gal(b1-4)GlcNAc(b1-2)Man(a1-3)[Neu5Ac(a2-3)Gal(b1-4)GlcNAc(b1-3)Gal(b1-4)GlcNAc(b1-2)Man(a1-6)]Man(b1-4)GlcNAc(b1-4)GlcNAc
# Method in brief: (§1)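 Glycan array data came from 3228 arrays in the Consortium for Functional Glycomics database, and only arrays with an available protein sequence were kept. Glycan names were put into IUPAC-condensed notation, and columns mapping to the same glycan were averaged. The binding signal is a within-array Z-score, averaged across arrays of one protein sequence run at different concentrations or buffers and across linkers. A negative Z-score can be read as non-binding.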
# [2] = target: Neu5Ac(a2-3)Gal(b1-4)GlcNAc(b1-3)Gal(b1-4)GlcNAc(b1-3)Gal(b1-4)GlcNAc
# Method in brief: as §1
# [3] = target: Neu5Ac(a2-3)Gal(b1-4)GlcNAc(b1-3)Gal(b1-4)GlcNAc(b1-3)Gal(b1-4)GlcNAc(b1-2)Man(a1-3)[Neu5Ac(a2-3)Gal(b1-4)GlcNAc(b1-3)Gal(b1-4)GlcNAc(b1-3)Gal(b1-4)GlcNAc(b1-2)Man(a1-6)]GalNAc
# Method in brief: as §1
# [4] = target: Neu5Ac(a2-3)Gal(b1-4)GlcNAc(b1-3)Gal(b1-4)GlcNAc(b1-3)GalNAc
# Method in brief: as §1
# [5] = target: Neu5Ac(a2-3)Gal(b1-4)GlcNAc(b1-3)Gal(b1-4)GlcNAc(b1-3)[Neu5Ac(a2-3)Gal(b1-4)GlcNAc(b1-3)Gal(b1-4)GlcNAc(b1-6)]GalNAc
# Method in brief: as §1
# [6] = target: Neu5Ac(a2-3)Gal(b1-4)GlcNAc(b1-3)Gal(b1-4)GlcNAc(b1-6)[Gal(b1-3)]GalNAc
# Method in brief: as §1
# [7] = target: Neu5Ac(a2-3)Gal(b1-4)GlcNAc(b1-3)Gal(b1-4)[Fuc(a1-3)]GlcNAc
# Method in brief: as §1
# [8] = target: Neu5Ac(a2-3)Gal(b1-4)GlcNAc(b1-3)GalNAc
# Method in brief: as §1
# [9] = target: Neu5Ac(a2-3)Gal(b1-4)GlcNAc(b1-3)[Neu5Ac(a2-3)Gal(b1-4)GlcNAc(b1-6)]GalNAc
# Method in brief: as §1
# [10] = target: Neu5Ac(a2-3)Gal(b1-4)GlcNAc(b1-6)GalNAc
# Method in brief: as §1
# [11] = target: Neu5Ac(a2-3)Gal(b1-4)GlcNAc(b1-6)[Gal(b1-3)]GalNAc
# Method in brief: as §1
# [12] = target: Neu5Ac(a2-3)Gal(b1-4)GlcNAc(b1-6)[Neu5Ac(a2-3)Gal(b1-3)]GalNAc
# Method in brief: as §1
# [13] = target: Neu5Ac(a2-3)Gal(b1-4)GlcNAc6S
# Method in brief: as §1
# [14] = target: Neu5Ac(a2-3)Gal(b1-4)[Fuc(a1-3)]GlcNAc
# Method in brief: as §1
# [15] = target: Neu5Ac(a2-3)Gal(b1-4)[Fuc(a1-3)]GlcNAc(b1-2)Man
# Method in brief: as §1
# [16] = target: Neu5Ac(a2-3)Gal(b1-4)[Fuc(a1-3)]GlcNAc(b1-3)Gal
# Method in brief: as §1
# [17] = target: Neu5Ac(a2-3)Gal(b1-4)[Fuc(a1-3)]GlcNAc(b1-3)Gal(b1-4)GlcNAc
# Method in brief: as §1
# [18] = target: Neu5Ac(a2-3)Gal(b1-4)[Fuc(a1-3)]GlcNAc(b1-3)Gal(b1-4)[Fuc(a1-3)]GlcNAc(b1-3)Gal(b1-4)[Fuc(a1-3)]GlcNAc
# Method in brief: as §1
# [19] = target: Neu5Ac(a2-3)Gal(b1-4)[Fuc(a1-3)]GlcNAc(b1-3)GalNAc
# Method in brief: as §1
# [20] = target: Neu5Ac(a2-3)Gal(b1-4)[Fuc(a1-3)]GlcNAc(b1-6)[Gal(b1-3)]GalNAc
# Method in brief: as §1
# [21] = target: Neu5Ac(a2-3)Gal(b1-4)[Fuc(a1-3)]GlcNAc(b1-6)[Neu5Ac(a2-3)Gal(b1-3)]GalNAc
# Method in brief: as §1
# [22] = target: Neu5Ac(a2-3)Gal(b1-4)[Fuc(a1-3)]GlcNAc6S
# Method in brief: as §1
# [23] = target: Neu5Ac(a2-3)Gal6S(b1-4)GlcNAc
# Method in brief: as §1
# [24] = target: Neu5Ac(a2-3)Gal6S(b1-4)[Fuc(a1-3)]GlcNAc
# Method in brief: as §1
# [25] = target: Neu5Ac(a2-3)GalNAc
# Method in brief: as §1
# [26] = target: Neu5Ac(a2-3)GalNAc(b1-4)GlcNAc
# Method in brief: as §1
# [27] = target: Neu5Ac(a2-3)[GalNAc(b1-4)]Gal(b1-4)Glc
# Method in brief: as §1
# [28] = target: Neu5Ac(a2-3)[GalNAc(b1-4)]Gal(b1-4)GlcNAc
# Method in brief: as §1
# [29] = target: Neu5Ac(a2-3)[GalNAc(b1-4)]Gal(b1-4)GlcNAc(b1-3)GalNAc
# Method in brief: as §1
# [30] = target: Neu5Ac(a2-3)[Neu5Ac(a2-6)]GalNAc
# Method in brief: as §1
# [31] = target: Neu5Ac(a2-6)Gal
# Method in brief: as §1
# [32] = target: Neu5Ac(a2-6)Gal(b1-3)GlcNAc(b1-3)[Gal(b1-4)GlcNAc(b1-6)]Gal(b1-4)Glc
# Method in brief: as §1
# [33] = target: Neu5Ac(a2-6)Gal(b1-4)Glc
# Method in brief: as §1
# [34] = target: Neu5Ac(a2-6)Gal(b1-4)GlcNAc
# Method in brief: as §1
# [35] = target: Neu5Ac(a2-6)Gal(b1-4)GlcNAc(b1-2)Man
# Method in brief: as §1
# [36] = target: Neu5Ac(a2-6)Gal(b1-4)GlcNAc(b1-2)Man(a1-3)Man(b1-4)GlcNAc(b1-4)GlcNAc
# Method in brief: as §1
# [37] = target: Neu5Ac(a2-6)Gal(b1-4)GlcNAc(b1-2)Man(a1-3)[Gal(b1-4)GlcNAc(b1-2)Man(a1-6)]Man(b1-4)GlcNAc(b1-4)GlcNAc
# Method in brief: as §1
# [38] = target: Neu5Ac(a2-6)Gal(b1-4)GlcNAc(b1-2)Man(a1-3)[GlcNAc(b1-2)Man(a1-6)]Man(b1-4)GlcNAc(b1-4)GlcNAc
# Method in brief: as §1
binder,measurement,setting,value
B1,glycan array binding signal (z-score),[1],-1.17
same,glycan array binding signal (z-score),[2],-0.357
same,glycan array binding signal (z-score),[3],3.75
same,glycan array binding signal (z-score),[4],-0.734
same,glycan array binding signal (z-score),[5],0.774
same,glycan array binding signal (z-score),[6],-0.672
same,glycan array binding signal (z-score),[7],-0.558
same,glycan array binding signal (z-score),[8],-0.944
same,glycan array binding signal (z-score),[9],-0.699
same,glycan array binding signal (z-score),[10],0.552
same,glycan array binding signal (z-score),[11],-0.364
same,glycan array binding signal (z-score),[12],-1.3
same,glycan array binding signal (z-score),[13],0.028
same,glycan array binding signal (z-score),[14],-0.612
same,glycan array binding signal (z-score),[15],-0.78
same,glycan array binding signal (z-score),[16],-0.478
same,glycan array binding signal (z-score),[17],-0.195
same,glycan array binding signal (z-score),[18],-0.302
same,glycan array binding signal (z-score),[19],1.98
same,glycan array binding signal (z-score),[20],0.387
same,glycan array binding signal (z-score),[21],-0.08
same,glycan array binding signal (z-score),[22],-0.953
same,glycan array binding signal (z-score),[23],0.034
same,glycan array binding signal (z-score),[24],-1.2
same,glycan array binding signal (z-score),[25],-1.04
same,glycan array binding signal (z-score),[26],-1.46
same,glycan array binding signal (z-score),[27],-0.687
same,glycan array binding signal (z-score),[28],-0.699
same,glycan array binding signal (z-score),[29],0.724
same,glycan array binding signal (z-score),[30],0.295
same,glycan array binding signal (z-score),[31],0.101
same,glycan array binding signal (z-score),[32],-0.999
same,glycan array binding signal (z-score),[33],-0.406
same,glycan array binding signal (z-score),[34],0.84
same,glycan array binding signal (z-score),[35],-1.03
same,glycan array binding signal (z-score),[36],1.36
same,glycan array binding signal (z-score),[37],-0.339
same,glycan array binding signal (z-score),[38],-0.958

# Random excerpt: three records from the list, in no set order.
binder,measurement,setting,value
B1,glycan array binding signal (z-score),[9],-0.699
same,glycan array binding signal (z-score),[17],-0.195
same,glycan array binding signal (z-score),[10],0.552
